In the supplement of paper PMC7666118:
Some of the results follow.

Chains of the proteins cited; added tags and fusions are not shown. Lines headed by an entry give the natural chain unless they say otherwise; changes in a name come on top.
UniProt O43310: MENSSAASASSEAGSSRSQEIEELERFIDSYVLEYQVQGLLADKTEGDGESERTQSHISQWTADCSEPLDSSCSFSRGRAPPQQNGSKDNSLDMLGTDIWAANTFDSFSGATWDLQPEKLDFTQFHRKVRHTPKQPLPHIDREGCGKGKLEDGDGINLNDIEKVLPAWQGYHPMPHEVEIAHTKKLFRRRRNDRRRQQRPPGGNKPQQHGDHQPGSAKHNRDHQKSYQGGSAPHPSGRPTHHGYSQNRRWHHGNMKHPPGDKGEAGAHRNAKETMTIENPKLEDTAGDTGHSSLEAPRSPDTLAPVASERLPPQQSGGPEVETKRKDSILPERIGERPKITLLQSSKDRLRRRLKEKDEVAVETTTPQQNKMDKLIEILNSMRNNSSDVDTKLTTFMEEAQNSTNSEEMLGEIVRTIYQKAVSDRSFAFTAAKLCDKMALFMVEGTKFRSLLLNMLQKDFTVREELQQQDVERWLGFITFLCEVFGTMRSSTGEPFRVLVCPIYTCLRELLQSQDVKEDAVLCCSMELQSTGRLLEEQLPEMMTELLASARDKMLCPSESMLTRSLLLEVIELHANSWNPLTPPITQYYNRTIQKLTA
UniProt Q9Y2L5: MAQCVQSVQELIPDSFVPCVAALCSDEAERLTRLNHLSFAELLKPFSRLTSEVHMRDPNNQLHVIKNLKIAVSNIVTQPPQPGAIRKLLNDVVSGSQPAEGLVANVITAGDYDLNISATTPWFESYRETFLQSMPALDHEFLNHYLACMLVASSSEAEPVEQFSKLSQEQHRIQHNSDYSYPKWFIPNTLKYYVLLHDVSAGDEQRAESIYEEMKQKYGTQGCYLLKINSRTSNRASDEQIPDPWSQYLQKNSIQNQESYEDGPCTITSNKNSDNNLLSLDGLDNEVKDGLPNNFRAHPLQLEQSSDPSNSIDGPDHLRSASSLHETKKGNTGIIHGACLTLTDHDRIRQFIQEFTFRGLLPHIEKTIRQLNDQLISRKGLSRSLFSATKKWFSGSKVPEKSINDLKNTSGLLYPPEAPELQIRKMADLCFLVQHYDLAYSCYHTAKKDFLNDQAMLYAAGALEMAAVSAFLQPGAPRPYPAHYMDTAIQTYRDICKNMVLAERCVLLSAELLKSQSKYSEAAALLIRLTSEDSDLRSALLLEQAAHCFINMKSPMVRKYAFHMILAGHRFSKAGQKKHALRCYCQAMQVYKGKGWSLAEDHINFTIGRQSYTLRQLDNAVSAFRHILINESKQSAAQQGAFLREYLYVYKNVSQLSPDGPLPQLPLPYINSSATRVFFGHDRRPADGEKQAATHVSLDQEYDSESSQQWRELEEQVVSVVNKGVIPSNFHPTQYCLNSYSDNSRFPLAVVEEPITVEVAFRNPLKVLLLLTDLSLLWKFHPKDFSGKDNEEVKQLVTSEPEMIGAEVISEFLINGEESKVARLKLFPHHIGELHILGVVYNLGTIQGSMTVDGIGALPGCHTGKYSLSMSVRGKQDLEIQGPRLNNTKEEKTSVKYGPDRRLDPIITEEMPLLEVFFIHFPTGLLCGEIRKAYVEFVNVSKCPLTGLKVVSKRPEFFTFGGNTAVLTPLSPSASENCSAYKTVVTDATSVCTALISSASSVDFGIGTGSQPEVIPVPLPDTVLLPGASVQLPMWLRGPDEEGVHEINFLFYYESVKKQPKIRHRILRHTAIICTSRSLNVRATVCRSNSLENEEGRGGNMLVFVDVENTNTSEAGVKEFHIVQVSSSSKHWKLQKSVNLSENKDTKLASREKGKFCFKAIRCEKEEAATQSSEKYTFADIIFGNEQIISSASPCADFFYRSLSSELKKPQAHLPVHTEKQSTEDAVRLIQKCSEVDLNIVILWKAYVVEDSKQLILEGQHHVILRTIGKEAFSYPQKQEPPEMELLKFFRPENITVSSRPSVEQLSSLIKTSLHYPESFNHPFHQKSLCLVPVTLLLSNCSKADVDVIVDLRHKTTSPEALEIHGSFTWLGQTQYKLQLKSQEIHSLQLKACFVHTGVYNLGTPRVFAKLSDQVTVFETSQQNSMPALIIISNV
UniProt Q12894: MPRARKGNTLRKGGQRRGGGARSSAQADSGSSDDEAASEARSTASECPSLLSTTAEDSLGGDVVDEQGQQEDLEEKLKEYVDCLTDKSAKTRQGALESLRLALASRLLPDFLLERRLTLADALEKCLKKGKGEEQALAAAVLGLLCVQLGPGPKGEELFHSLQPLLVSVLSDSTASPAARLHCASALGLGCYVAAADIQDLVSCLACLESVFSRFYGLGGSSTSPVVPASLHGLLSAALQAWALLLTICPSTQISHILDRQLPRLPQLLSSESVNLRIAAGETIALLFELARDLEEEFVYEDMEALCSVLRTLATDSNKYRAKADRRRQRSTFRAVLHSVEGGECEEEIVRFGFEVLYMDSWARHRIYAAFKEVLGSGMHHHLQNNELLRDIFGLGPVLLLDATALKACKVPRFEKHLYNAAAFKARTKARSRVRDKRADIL
UniProt Q14653: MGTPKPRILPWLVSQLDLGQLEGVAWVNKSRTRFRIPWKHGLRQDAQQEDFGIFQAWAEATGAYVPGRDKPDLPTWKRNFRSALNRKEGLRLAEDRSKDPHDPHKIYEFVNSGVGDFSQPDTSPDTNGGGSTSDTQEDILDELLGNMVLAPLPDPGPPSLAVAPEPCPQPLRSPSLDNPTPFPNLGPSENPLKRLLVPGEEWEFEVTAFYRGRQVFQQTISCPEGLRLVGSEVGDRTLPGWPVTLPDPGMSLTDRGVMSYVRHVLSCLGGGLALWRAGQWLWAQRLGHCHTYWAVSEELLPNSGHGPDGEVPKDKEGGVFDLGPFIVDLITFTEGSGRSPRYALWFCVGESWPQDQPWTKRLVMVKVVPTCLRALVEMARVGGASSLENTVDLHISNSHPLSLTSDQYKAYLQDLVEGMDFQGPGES
UniProt Q07666, whole entry: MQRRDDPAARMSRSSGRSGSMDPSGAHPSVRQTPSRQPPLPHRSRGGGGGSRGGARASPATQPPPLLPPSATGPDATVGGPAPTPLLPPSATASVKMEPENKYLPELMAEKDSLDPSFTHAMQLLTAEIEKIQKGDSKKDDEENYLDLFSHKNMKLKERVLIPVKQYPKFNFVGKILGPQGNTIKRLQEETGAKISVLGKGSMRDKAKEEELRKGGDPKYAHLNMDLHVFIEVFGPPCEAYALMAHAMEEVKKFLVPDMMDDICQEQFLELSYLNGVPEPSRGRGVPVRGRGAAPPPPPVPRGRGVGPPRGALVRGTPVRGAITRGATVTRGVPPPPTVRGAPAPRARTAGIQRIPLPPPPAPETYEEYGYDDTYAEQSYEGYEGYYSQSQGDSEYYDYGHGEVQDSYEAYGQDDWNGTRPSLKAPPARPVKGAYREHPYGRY
UniProt Q8IYS2: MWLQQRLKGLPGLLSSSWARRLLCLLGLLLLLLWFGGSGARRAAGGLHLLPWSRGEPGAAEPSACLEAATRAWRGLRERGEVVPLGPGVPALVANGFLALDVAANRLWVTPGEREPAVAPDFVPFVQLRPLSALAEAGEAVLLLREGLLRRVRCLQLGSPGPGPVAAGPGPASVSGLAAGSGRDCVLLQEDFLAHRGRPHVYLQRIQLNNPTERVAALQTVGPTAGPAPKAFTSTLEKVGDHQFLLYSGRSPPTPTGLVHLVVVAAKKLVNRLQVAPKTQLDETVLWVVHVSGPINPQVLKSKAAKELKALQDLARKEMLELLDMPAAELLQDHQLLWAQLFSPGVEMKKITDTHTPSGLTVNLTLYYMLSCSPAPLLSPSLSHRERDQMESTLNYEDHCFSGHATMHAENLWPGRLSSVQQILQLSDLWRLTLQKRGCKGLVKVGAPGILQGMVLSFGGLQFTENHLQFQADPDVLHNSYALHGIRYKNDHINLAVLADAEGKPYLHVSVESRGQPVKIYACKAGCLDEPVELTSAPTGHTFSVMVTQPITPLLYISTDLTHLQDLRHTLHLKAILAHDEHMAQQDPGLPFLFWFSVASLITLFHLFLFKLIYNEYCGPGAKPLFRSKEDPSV
UniProt Q96G21: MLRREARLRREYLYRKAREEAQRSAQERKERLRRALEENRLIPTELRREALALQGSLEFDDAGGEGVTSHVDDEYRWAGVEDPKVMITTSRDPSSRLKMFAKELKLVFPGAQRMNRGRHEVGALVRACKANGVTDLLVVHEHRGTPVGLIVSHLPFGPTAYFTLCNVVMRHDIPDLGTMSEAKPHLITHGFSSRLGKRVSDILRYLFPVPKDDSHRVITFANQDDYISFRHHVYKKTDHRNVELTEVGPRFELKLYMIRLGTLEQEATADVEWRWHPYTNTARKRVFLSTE
UniProt Q5VYK3, whole entry: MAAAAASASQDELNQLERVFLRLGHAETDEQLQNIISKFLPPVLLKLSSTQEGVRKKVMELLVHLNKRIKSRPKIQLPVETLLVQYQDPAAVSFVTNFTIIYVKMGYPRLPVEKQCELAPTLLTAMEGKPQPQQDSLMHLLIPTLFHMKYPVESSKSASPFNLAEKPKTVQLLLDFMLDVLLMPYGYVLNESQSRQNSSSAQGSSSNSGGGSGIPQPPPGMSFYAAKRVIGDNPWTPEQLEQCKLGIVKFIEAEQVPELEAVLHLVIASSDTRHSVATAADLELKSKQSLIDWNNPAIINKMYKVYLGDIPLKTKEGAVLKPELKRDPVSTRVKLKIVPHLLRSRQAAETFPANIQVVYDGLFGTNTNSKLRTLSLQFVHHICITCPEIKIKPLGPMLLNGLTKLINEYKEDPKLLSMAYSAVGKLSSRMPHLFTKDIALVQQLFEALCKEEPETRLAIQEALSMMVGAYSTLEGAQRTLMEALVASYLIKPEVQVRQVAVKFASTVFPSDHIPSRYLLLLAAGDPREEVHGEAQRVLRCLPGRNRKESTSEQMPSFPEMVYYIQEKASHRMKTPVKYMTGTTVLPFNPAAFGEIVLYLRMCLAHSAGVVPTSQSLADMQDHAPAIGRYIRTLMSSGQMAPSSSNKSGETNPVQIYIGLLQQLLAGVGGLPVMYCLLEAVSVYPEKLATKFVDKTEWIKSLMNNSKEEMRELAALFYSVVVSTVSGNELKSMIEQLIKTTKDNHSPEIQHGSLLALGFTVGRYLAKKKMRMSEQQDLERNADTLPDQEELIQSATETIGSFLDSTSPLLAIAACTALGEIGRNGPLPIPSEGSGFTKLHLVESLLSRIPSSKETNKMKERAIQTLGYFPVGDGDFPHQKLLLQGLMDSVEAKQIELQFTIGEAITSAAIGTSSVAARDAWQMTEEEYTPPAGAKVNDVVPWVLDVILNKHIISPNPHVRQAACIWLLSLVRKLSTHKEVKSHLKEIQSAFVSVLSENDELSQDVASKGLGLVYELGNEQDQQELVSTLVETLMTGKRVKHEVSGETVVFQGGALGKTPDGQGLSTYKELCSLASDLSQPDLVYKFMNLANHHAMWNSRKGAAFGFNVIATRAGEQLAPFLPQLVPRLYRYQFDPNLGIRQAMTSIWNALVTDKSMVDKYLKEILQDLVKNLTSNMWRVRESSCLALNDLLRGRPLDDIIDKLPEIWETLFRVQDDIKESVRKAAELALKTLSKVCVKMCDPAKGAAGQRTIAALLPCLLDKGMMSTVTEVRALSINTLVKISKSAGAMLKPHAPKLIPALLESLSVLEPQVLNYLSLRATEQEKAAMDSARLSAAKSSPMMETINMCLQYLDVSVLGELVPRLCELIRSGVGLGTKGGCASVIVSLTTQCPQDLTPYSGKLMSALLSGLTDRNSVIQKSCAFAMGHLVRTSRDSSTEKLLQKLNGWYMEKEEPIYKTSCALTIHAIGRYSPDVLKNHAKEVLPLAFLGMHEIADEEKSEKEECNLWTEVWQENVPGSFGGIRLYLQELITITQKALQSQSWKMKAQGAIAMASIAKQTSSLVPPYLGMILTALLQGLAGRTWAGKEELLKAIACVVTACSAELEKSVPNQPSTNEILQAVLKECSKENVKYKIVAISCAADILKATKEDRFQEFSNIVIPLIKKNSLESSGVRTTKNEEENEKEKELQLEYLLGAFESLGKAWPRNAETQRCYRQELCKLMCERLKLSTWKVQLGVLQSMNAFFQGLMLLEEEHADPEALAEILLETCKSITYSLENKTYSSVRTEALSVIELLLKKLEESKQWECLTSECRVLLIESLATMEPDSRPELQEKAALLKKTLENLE
UniProt Q9P0J7: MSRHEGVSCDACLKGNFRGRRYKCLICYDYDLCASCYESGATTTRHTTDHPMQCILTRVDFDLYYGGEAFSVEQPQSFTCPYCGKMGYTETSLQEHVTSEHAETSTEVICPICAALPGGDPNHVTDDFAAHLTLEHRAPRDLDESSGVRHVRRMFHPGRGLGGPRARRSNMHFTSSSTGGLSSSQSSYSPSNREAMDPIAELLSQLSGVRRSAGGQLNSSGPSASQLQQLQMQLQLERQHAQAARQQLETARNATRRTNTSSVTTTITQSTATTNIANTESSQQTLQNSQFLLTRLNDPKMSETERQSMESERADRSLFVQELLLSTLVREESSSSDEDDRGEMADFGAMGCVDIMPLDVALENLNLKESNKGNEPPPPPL

These targets were tested with COc1ccc(Cn2ccc3cc(C)c(C(=O)NO)cc32)cc1 (assay: dose-dependent thermal stabilisation call (2D-TPP, DLPTP, 10% FDR) (binary (1 = stabilised)); higher = stabilised by the compound). Conditions: system: HL-60 intact cells; concentration range 0.04-10 µM.
Description: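 2D thermal proteome profiling in intact HL-60 cells treated with BRD-3811 (0, 0.04, 0.29, 2, 10 uM) for 90 min at 37 C, then heated 3 min at one of 12 temperatures (42-63.9 C). Soluble protein was quantified by TMT10 MS. The value is the DLPTP call of the paper: dose-dependent thermal stabilisation over all temperatures at 10% FDR (F-test of a dose-response against a flat model); one experiment, one call per tested protein.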

| Target | dose-dependent thermal stabilisation call |
| --- | --- |
| KCTD15 (UniProt Q96SI1) | inactive: 0 |
| KATNB1 (UniProt Q9BVA0) | inactive: 0 |
| IFT74 (UniProt Q96LB3) | inactive: 0 |
| KIAA0427 (UniProt O43310) | inactive: 0 |
| IGBP1 (UniProt P78318) | inactive: 0 |
| KBTBD11 (UniProt O94819) | inactive: 0 |
| JMJD5 (UniProt Q8N371) | inactive: 0 |
| IDH3B (UniProt O43837) | inactive: 0 |
| KIAA0907 (UniProt Q7Z7F0) | inactive: 0 |
| KIAA1012 (UniProt Q9Y2L5) | inactive: 0 |
| IFRD2 (UniProt Q12894) | inactive: 0 |
| IRF3 (UniProt Q14653) | inactive: 0 |
| KHDRBS1 (UniProt Q07666) | inactive: 0 |
| IQGAP2 (UniProt Q13576) | inactive: 0 |
| ITGB1 (UniProt P05556) | inactive: 0 |
| HTRA2 (UniProt O43464) | inactive: 0 |
| KIAA2013 (UniProt Q8IYS2) | inactive: 0 |
| ITPR2 (UniProt Q14571) | inactive: 0 |

| Target | dose-dependent thermal stabilisation call |
| --- | --- |
| ITFG3 (UniProt Q9H0X4) | inactive: 0 |
| IRF2BP2 (UniProt Q7Z5L9) | inactive: 0 |
| HVCN1 (UniProt Q96D96) | inactive: 0 |
| ITPR3 (UniProt Q14573) | inactive: 0 |
| IKIP (UniProt Q70UQ0) | inactive: 0 |
| IRF2BP1 (UniProt Q8IU81) | inactive: 0 |
| IMP4 (UniProt Q96G21) | inactive: 0 |
| KIAA0368 (UniProt Q5VYK3) | inactive: 0 |
| KATNA1 (UniProt O75449) | inactive: 0 |
| IK (UniProt Q13123) | inactive: 0 |
| ISG15 (UniProt P05161) | inactive: 0 |
| JPH1 (UniProt Q9HDC5) | inactive: 0 |
| KIAA0528 (UniProt Q86YS7) | inactive: 0 |
| JMJD2B (UniProt O94953) | inactive: 0 |
| KIAA0319L (UniProt Q8IZA0) | inactive: 0 |
| KCMF1 (UniProt Q9P0J7) | inactive: 0 |
| KANK1 (UniProt Q14678) | inactive: 0 |
| ISL2 (UniProt Q96A47) | inactive: 0 |

Three entries drawn at random from those above:

| Target | dose-dependent thermal stabilisation call |
| --- | --- |
| ISG15 (UniProt P05161) | inactive: 0 |
| IRF2BP2 (UniProt Q7Z5L9) | inactive: 0 |
| KIAA0528 (UniProt Q86YS7) | inactive: 0 |
